Results are given in words; binding and its absence hold for the method and conditions named. In cells and extracts the contact can be indirect. Some results given as binding are weak or reduced against the parent protein; the word gives no strength. Tags and fused reporters may be left off the sequences shown.

The chains behind the UniProt entries cited, without tags or fusion partners. Residues count along the entry.
UniProt Q01667, residues 36-241: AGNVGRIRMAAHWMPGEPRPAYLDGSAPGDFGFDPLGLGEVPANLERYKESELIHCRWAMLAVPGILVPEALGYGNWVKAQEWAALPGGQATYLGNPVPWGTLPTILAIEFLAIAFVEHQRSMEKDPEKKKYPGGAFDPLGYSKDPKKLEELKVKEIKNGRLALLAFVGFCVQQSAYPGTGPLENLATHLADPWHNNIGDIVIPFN
UniProt Q9SYW8, residues 44-257: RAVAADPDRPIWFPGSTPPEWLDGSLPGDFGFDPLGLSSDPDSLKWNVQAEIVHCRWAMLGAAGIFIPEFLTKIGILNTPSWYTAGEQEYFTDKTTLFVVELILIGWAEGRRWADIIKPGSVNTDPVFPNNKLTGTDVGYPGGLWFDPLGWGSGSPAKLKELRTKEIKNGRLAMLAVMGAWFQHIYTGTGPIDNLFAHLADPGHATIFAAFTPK
UniProt Q9SY97, residues 40-273: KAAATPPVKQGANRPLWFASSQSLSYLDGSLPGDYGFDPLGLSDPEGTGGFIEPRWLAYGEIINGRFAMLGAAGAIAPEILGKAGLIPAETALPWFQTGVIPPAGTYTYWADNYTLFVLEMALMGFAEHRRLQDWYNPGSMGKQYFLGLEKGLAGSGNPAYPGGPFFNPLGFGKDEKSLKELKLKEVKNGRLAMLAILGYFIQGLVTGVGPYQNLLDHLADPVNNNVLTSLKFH

For this assay, the target named is T1, HA-tagged WHY1 in thylakoid membrane fractions (Arabidopsis thaliana) (UniProt Q9M9S3).
T1 sequence: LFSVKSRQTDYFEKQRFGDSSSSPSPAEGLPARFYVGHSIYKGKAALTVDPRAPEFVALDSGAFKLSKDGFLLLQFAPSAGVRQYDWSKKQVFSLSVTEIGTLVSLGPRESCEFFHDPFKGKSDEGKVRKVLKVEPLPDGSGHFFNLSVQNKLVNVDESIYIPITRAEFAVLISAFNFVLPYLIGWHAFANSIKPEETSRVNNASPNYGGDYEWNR
Nature of the assay: co-IP; solubilised thylakoid membrane fractions 1, 2 and 3 of a sucrose gradient as input; antibody against the HA tag, 4 °C, protein A beads, washed with 50 mM Tris-HCl, 0.1% nonidet P-40, pH 8.0; immunoblots with antibodies against LHCA1, LHCA2, LHCA3, LHCA4 and LHCB1.
For “LHCA1 (endogenous, thylakoid membrane fractions) (from UniProt Q01667 36-241)”, the binding entry is given as “binds”.

Regarding “LHCA2 (endogenous, thylakoid membrane fractions) (from UniProt Q9SYW8 44-257)”, the binding entry was “no binding”. For the substance “LHCA3 (endogenous, thylakoid membrane fractions) (from UniProt Q9SY97 40-273)”, the binding entry is given as “no binding”.

For the origin of these results see article PMC5713321.
